Laboratory results from the supplement of paper PMC12067093, “Discovery and optimisation of a covalent ligand for TRIM25 and its application to targeted protein ubiquitination” (Chemical Science, 2025).
The list shows a part of the results.

By UniProt entry, the sequences of proteins in these tests, tags left out. Where a name states a change or a piece, a line headed by the entry shows the natural chain unless it says otherwise.
UniProt Q8TEW0: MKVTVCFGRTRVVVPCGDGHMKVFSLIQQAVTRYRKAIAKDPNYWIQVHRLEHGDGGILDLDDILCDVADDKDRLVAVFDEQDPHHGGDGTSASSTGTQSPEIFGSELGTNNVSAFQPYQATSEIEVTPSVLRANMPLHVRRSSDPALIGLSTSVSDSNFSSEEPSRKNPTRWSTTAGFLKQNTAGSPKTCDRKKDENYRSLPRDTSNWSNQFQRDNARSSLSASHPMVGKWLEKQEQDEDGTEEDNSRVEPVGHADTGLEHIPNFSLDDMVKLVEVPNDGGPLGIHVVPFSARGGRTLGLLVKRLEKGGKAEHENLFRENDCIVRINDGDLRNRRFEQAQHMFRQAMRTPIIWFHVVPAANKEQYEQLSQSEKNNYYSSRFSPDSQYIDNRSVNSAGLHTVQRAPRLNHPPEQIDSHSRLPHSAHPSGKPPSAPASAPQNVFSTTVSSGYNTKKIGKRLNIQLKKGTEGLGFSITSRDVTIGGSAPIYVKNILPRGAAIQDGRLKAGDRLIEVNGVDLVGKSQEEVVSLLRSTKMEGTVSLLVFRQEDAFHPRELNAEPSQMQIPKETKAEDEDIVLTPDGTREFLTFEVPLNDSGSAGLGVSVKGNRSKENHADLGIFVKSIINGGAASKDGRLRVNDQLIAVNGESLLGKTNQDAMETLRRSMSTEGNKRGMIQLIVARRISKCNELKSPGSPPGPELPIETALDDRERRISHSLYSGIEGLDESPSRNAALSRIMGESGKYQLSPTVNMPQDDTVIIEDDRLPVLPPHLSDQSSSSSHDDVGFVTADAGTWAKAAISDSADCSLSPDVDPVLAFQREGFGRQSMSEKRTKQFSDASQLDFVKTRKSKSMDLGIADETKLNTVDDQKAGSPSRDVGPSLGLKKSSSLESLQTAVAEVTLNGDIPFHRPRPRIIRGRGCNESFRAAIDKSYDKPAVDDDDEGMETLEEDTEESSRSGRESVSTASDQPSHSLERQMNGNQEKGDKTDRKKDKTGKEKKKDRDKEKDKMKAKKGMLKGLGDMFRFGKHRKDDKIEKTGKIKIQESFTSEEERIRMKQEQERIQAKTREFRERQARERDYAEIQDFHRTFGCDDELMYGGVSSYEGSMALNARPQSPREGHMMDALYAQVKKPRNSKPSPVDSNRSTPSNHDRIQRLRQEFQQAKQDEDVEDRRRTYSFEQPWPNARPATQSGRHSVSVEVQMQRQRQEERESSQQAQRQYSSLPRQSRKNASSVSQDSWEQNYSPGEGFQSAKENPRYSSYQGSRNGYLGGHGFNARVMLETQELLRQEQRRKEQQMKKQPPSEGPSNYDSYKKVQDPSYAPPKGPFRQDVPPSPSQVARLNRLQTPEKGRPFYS
UniProt Q9BPZ3: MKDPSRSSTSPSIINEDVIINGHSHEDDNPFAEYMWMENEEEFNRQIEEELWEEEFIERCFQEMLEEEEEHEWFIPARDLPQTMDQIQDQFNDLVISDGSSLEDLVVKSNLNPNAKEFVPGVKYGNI
UniProt Q96FW1, whole entry, looked up: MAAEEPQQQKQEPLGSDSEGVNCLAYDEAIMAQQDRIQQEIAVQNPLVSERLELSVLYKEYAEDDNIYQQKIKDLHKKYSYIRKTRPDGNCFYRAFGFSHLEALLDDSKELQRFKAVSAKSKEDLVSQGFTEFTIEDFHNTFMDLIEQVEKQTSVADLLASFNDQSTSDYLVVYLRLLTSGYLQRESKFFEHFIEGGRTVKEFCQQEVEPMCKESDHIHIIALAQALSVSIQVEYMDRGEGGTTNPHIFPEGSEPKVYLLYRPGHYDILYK
UniProt O43252: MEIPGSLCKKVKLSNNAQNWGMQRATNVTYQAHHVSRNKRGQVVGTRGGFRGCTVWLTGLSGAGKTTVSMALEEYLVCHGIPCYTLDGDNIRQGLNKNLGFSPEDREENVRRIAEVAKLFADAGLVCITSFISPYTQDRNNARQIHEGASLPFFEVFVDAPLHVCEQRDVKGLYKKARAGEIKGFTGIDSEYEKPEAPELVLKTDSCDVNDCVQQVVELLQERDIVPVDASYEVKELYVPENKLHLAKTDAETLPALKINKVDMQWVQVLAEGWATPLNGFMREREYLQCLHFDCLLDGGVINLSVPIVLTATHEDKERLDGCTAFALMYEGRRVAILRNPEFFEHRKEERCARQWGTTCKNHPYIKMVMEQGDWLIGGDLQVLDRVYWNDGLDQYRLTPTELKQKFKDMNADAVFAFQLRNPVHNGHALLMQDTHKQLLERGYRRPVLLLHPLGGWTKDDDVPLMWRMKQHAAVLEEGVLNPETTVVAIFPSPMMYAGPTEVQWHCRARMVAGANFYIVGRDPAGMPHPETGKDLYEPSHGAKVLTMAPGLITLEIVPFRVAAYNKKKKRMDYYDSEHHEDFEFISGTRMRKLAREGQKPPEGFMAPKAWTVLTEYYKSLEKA
UniProt P68402: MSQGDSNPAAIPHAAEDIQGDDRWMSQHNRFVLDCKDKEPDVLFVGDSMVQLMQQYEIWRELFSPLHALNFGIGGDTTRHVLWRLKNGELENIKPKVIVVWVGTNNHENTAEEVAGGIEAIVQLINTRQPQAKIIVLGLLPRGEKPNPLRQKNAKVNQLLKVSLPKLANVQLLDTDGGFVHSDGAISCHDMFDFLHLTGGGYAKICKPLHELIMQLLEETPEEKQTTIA
UniProt Q99497, whole entry, looked up: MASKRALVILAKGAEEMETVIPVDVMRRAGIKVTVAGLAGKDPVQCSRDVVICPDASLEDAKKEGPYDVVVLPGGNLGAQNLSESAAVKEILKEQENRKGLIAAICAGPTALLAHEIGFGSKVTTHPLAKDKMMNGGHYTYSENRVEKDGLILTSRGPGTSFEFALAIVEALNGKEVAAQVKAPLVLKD
UniProt P55809: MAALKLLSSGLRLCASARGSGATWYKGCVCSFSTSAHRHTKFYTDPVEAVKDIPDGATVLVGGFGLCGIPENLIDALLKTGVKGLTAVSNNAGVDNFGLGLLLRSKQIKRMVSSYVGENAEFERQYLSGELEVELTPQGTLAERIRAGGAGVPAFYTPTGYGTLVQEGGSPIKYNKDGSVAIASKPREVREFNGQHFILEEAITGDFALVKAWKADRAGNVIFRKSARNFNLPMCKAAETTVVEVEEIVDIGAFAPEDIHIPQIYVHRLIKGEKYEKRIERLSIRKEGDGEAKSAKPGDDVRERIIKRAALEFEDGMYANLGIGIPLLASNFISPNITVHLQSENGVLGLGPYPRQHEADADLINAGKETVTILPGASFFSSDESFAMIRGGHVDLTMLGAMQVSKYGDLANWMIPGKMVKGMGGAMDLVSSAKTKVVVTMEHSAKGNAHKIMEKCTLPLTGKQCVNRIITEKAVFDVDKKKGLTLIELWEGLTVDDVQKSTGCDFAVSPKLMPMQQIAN
UniProt P13674: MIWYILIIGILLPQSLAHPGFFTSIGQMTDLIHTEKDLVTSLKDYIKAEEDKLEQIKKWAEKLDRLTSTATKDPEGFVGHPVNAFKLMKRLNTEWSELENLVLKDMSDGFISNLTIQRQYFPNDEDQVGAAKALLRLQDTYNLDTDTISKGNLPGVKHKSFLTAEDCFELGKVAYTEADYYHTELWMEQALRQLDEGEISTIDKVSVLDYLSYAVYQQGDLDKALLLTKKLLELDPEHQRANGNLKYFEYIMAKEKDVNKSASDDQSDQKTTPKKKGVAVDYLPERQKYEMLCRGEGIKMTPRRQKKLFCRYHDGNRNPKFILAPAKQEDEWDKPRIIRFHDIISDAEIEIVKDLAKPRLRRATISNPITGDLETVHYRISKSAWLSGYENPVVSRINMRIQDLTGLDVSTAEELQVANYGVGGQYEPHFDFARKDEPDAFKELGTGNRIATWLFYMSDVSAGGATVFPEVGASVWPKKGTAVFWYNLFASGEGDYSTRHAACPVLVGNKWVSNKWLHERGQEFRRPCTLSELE
UniProt Q9H4B0: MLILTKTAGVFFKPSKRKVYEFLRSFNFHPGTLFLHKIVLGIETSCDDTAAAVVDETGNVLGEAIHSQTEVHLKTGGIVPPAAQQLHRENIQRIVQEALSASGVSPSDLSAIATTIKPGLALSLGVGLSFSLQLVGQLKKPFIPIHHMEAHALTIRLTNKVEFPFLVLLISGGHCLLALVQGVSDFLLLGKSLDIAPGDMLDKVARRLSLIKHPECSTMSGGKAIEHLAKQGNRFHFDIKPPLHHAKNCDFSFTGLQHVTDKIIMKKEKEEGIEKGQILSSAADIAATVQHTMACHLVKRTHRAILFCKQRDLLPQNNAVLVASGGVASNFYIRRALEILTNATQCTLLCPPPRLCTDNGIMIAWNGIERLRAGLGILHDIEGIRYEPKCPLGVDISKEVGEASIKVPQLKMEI
UniProt Q9NWT1: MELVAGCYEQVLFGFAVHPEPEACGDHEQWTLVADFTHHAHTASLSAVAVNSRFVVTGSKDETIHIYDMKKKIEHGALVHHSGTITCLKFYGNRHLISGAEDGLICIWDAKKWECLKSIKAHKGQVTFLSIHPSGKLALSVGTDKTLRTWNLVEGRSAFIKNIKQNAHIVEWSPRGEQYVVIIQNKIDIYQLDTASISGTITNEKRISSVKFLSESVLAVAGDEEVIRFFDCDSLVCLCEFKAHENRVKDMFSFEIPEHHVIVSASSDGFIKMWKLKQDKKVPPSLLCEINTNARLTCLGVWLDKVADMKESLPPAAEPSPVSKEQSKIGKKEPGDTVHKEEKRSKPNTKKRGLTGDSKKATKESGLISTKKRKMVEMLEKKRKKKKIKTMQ
UniProt Q32P28: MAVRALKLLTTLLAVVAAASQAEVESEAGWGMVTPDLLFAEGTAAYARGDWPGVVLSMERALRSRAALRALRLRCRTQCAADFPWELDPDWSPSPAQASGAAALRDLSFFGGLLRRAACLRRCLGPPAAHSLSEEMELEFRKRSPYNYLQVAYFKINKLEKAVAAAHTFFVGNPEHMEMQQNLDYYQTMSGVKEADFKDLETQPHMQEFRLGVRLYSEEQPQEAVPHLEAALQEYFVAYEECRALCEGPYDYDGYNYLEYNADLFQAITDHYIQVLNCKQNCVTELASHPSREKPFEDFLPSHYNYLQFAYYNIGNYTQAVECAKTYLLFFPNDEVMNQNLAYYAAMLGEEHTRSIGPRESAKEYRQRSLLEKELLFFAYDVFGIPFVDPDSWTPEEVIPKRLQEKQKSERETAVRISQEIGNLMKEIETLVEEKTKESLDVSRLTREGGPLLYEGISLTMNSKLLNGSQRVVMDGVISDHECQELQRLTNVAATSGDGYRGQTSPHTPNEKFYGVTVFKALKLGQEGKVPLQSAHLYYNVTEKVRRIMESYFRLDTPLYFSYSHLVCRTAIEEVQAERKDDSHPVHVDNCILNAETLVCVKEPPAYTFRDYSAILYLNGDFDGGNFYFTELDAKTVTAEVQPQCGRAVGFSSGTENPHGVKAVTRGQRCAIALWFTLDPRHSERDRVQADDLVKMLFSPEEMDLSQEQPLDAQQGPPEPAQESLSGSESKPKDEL
UniProt Q504Q3: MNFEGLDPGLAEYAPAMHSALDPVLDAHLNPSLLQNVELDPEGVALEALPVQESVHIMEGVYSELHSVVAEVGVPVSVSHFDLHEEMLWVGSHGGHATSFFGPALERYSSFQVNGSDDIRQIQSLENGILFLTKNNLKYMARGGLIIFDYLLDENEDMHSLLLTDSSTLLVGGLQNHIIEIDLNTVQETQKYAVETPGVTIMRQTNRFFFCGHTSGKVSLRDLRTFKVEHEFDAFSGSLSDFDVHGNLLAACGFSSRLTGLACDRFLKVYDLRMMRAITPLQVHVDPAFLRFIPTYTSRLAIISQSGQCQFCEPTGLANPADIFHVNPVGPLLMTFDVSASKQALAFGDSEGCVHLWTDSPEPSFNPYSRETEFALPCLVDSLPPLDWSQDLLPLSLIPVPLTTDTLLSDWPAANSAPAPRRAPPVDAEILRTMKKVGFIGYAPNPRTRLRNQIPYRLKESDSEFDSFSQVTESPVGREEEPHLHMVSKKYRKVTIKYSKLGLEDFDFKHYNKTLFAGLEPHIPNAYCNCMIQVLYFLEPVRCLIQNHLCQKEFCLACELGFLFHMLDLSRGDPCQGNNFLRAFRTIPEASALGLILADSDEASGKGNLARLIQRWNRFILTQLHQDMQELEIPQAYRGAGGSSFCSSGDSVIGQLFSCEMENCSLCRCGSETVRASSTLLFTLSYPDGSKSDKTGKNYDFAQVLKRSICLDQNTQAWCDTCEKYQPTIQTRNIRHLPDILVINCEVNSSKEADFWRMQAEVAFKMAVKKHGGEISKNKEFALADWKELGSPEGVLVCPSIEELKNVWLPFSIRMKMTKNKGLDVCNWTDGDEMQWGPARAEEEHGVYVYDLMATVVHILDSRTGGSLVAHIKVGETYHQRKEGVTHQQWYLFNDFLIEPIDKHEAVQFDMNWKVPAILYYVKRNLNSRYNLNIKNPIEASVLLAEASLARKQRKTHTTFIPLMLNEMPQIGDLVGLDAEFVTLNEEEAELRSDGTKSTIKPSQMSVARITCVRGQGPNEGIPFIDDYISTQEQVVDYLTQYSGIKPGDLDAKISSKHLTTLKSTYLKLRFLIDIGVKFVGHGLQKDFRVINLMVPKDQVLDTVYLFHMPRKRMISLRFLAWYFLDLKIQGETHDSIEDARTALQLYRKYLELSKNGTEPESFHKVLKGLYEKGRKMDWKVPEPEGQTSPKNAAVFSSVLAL

Compound: Cc1cc(ccc1-c1ccccc1)C(=O)N1CCCN(CC1)C(=O)CCl [compound 10]
Experiment: probe-labelled cysteine peptide fold change vs DMSO (competition) (log2 fold change); higher = less target engagement (more negative = stronger competition)
Conditions: 10 µM; THP-1; incubation time: 4 h
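Also: competitive profiling in live THP-1 cells: cysteine peptides tagged with an iodoacetamide desthiobiotin (IA-DTB) probe, intensity after compound treatment relative to DMSO-treated cells.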

Target | probe-labelled cysteine peptide fold change
OSBPL1A_Q9BXW6_171+182_TTELTALLNRPNPPDVNCSDQLGNTPLHCAAYR (UniProt Q9BXW6) | -0.00673
OSBPL5_Q9H0X9_459_CCWFHPQTDSR (UniProt Q9H0X9) | 0.0375
PARP1_P09874_295+298_VADGMVFGALLPCEECSGQLVFK (UniProt P09874) | -0.0492
OPLAH_O14841_408_LLPASFPCIFGPGENQPLSPEASR (UniProt O14841) | 0.121
PARD3_Q8TEW0_66_LEHGDGGILDLDDILCDVADDKDR (UniProt Q8TEW0) | -0.345
PAIP2_Q9BPZ3_60_CFQEMLEEEEEHEWFIPAR (UniProt Q9BPZ3) | 0.154
PANK4_Q9NVE7_651_GTEVILACNSGPALNDVTHSESLIVAER (UniProt Q9NVE7) | -0.119
PARP1_P09874_429_ASLCISTK (UniProt P09874) | 0.139
PAIP1_Q9H074_222_LCNYLSHHLTISPQSGNFR (UniProt Q9H074) | 0.322
OTUB1_Q96FW1_212_EFCQQEVEPMCK (UniProt Q96FW1) | -0.0656
OTUD7B_Q6GQQ9_280_MHLGTNGANCGGVESSEEPVYESLEEFHVFVLAHVLR (UniProt Q6GQQ9) | 0.563
PAPSS1_O43252_8_MEIPGSLCK (UniProt O43252) | -0.295
PAFAH1B2_P68402_206_ICKPLHELIMQLLEETPEEK (UniProt P68402) | -0.134
PARK7_Q99497_53_DVVICPDASLEDAK (UniProt Q99497) | -0.432
PARG_Q86W56_397_LPGNISSLNVECR (UniProt Q86W56) | 0.00793
OXCT1_P55809_235_NFNLPMCK (UniProt P55809) | -0.15
OSBPL1A_Q9BXW6_303_CFDDTIHGFRVPK (UniProt Q9BXW6) | -0.0663
OTULIN_Q96BN8_47_AAASGQPRPEMQCPAEHEEDMYR (UniProt Q96BN8) | -0.315
PARP10_Q53GL7_50_LGCGGVLTFR (UniProt Q53GL7) | -0.14

Target | probe-labelled cysteine peptide fold change
PARK7_Q99497_46_VTVAGLAGKDPVQCSR (UniProt Q99497) | -0.287
PADI2_Q9Y2J8_629_GLLEPLGLECTFIDDISAYHK (UniProt Q9Y2J8) | 0.0564
P4HA1_P13674_167_SFLTAEDCFELGK (UniProt P13674) | 0.0998
OSGEPL1_Q9H4B0_216_HPECSTMSGGK (UniProt Q9H4B0) | -0.0466
PARD3_Q8TEW0_66_LEHGDGGILDLDDILCDVADDK (UniProt Q8TEW0) | -0.341
PAK3_O75914_424_LTDFGFCAQITPEQSKR (UniProt O75914) | -0.151
OPLAH_O14841_236_GHTACADAYLTPAIQR (UniProt O14841) | 0.0694
OSBPL1A_Q9BXW6_746_CVLNFKPCGLFGK (UniProt Q9BXW6) | 0.0418
ORC1_Q13415_253_RLELGNLGNPQMSQQTSCASLDSPGR (UniProt Q13415) | -0.643
PAFAH2_Q99487_147_SAATTYFCK (UniProt Q99487) | -0.189
OSBPL1A_Q9BXW6_711_GTITLELLEHNEAYTWTNPTCCVHNIIVGK (UniProt Q9BXW6) | 0.0211
PAK1IP1_Q9NWT1_237_FFDCDSLVCLCEFK (UniProt Q9NWT1) | 0.0404
PAICS_P22234_266_SESQCR (UniProt P22234) | 0.613
ORC1_Q13415_806_SGLEEATFQQIYSQHVALCR (UniProt Q13415) | 0.111
P3H1_Q32P28_600_KDDSHPVHVDNCILNAETLVCVK (UniProt Q32P28) | -0.12
OSBPL2_Q9H1P3_266_CVLHFKPCGLFGK (UniProt Q9H1P3) | -0.0954
PAN2_Q504Q3_550_CLIQNHLCQK (UniProt Q504Q3) | 0.161
PARN_O95453_302_LVIGHNMLLDVMHTVHQFYCPLPADLSEFK (UniProt O95453) | 0.0951
PARP10_Q53GL7_768_GDCTILR (UniProt Q53GL7) | -0.181

Same assay, conditions: 50 µM; THP-1; incubation time: 4 h

Target | probe-labelled cysteine peptide fold change
OSBPL1A_Q9BXW6_171+182_TTELTALLNRPNPPDVNCSDQLGNTPLHCAAYR (UniProt Q9BXW6) | -0.142
OSBPL5_Q9H0X9_459_CCWFHPQTDSR (UniProt Q9H0X9) | -0.0634
PARP1_P09874_295+298_VADGMVFGALLPCEECSGQLVFK (UniProt P09874) | -0.144
OPLAH_O14841_408_LLPASFPCIFGPGENQPLSPEASR (UniProt O14841) | 0.408
PARD3_Q8TEW0_66_LEHGDGGILDLDDILCDVADDKDR (UniProt Q8TEW0) | -0.0912
PAIP2_Q9BPZ3_60_CFQEMLEEEEEHEWFIPAR (UniProt Q9BPZ3) | -0.171
PANK4_Q9NVE7_651_GTEVILACNSGPALNDVTHSESLIVAER (UniProt Q9NVE7) | -0.258
PARP1_P09874_429_ASLCISTK (UniProt P09874) | -0.00144
PAIP1_Q9H074_222_LCNYLSHHLTISPQSGNFR (UniProt Q9H074) | 0.132
OTUB1_Q96FW1_212_EFCQQEVEPMCK (UniProt Q96FW1) | -0.0302
OTUD7B_Q6GQQ9_280_MHLGTNGANCGGVESSEEPVYESLEEFHVFVLAHVLR (UniProt Q6GQQ9) | 0.225
PAPSS1_O43252_8_MEIPGSLCK (UniProt O43252) | 0.204
PAFAH1B2_P68402_206_ICKPLHELIMQLLEETPEEK (UniProt P68402) | -0.747
PARK7_Q99497_53_DVVICPDASLEDAK (UniProt Q99497) | 0.291
PARG_Q86W56_397_LPGNISSLNVECR (UniProt Q86W56) | -0.125
OXCT1_P55809_235_NFNLPMCK (UniProt P55809) | -0.0876
OSBPL1A_Q9BXW6_303_CFDDTIHGFRVPK (UniProt Q9BXW6) | -0.385
OTULIN_Q96BN8_47_AAASGQPRPEMQCPAEHEEDMYR (UniProt Q96BN8) | -0.133
PARP10_Q53GL7_50_LGCGGVLTFR (UniProt Q53GL7) | -0.76

Target | probe-labelled cysteine peptide fold change
PARK7_Q99497_46_VTVAGLAGKDPVQCSR (UniProt Q99497) | -0.276
PADI2_Q9Y2J8_629_GLLEPLGLECTFIDDISAYHK (UniProt Q9Y2J8) | -0.0414
P4HA1_P13674_167_SFLTAEDCFELGK (UniProt P13674) | 0.23
OSGEPL1_Q9H4B0_216_HPECSTMSGGK (UniProt Q9H4B0) | -0.31
PARD3_Q8TEW0_66_LEHGDGGILDLDDILCDVADDK (UniProt Q8TEW0) | 0.218
PAK3_O75914_424_LTDFGFCAQITPEQSKR (UniProt O75914) | -0.562
OPLAH_O14841_236_GHTACADAYLTPAIQR (UniProt O14841) | 0.184
OSBPL1A_Q9BXW6_746_CVLNFKPCGLFGK (UniProt Q9BXW6) | -0.123
ORC1_Q13415_253_RLELGNLGNPQMSQQTSCASLDSPGR (UniProt Q13415) | -0.242
PAFAH2_Q99487_147_SAATTYFCK (UniProt Q99487) | 0.064
OSBPL1A_Q9BXW6_711_GTITLELLEHNEAYTWTNPTCCVHNIIVGK (UniProt Q9BXW6) | 0.214
PAK1IP1_Q9NWT1_237_FFDCDSLVCLCEFK (UniProt Q9NWT1) | 0.546
PAICS_P22234_266_SESQCR (UniProt P22234) | 1.39
ORC1_Q13415_806_SGLEEATFQQIYSQHVALCR (UniProt Q13415) | -0.0714
P3H1_Q32P28_600_KDDSHPVHVDNCILNAETLVCVK (UniProt Q32P28) | -0.00152
OSBPL2_Q9H1P3_266_CVLHFKPCGLFGK (UniProt Q9H1P3) | -0.115
PAN2_Q504Q3_550_CLIQNHLCQK (UniProt Q504Q3) | 0.324
PARN_O95453_302_LVIGHNMLLDVMHTVHQFYCPLPADLSEFK (UniProt O95453) | 0.0864
PARP10_Q53GL7_768_GDCTILR (UniProt Q53GL7) | -0.859
